“Also recorded” adds a separate entry of the source.
Assay: double-blind, randomized comparative taste-test of oral alpha-lipoic acid solutions (throat irritation, overall liking)
Type: in vivo
Details: individual subject ratings (one grid row per subject), nine designations, oral solution standardized to 0.5% w/v ALA

| SMILES | OVERALL (Overall Liking) (listed as ALA-TR) | OVERALL (Overall Liking) |
| --- | --- | --- |
| NC(CO)(CO)CO.O=C(O)CCCCC1CCSS1 (centres unmarked) [TR-ALA, tris(hydroxymethyl) amino methane thioctate] | Dislike Mod; also recorded: Neither; also recorded: Like Slightly |  |
| O=C([O-])CCCCC1CCSS1.[Na+] (centres unmarked) [Na-ALA] |  | Dislike Mod; also recorded: Like Slightly; also recorded: Neither |

From patent US20070196442A1, “Method for improving the oral administration of alpha-lipoic acid” (priority 2006, published 2007)
